According to PMC5647368:
Results are given in words; binding and its absence hold for the method and conditions named. In cells and extracts the contact can be indirect. Some entries that bind do so weakly or less than the wild type. For some of these results: Tags and fused reporters may be left off the sequences shown. Values belong to the binder of their own block, whether it stands above or below them.

By UniProt entry, the sequences of proteins in these tests, tags left out. Where a name states a change or a piece, a line headed by the entry shows the natural chain unless it says otherwise. Chains listed by the source or under a name are the forms on record and can include a tag or linker. Residues count along the entry.
UniProt Q04206: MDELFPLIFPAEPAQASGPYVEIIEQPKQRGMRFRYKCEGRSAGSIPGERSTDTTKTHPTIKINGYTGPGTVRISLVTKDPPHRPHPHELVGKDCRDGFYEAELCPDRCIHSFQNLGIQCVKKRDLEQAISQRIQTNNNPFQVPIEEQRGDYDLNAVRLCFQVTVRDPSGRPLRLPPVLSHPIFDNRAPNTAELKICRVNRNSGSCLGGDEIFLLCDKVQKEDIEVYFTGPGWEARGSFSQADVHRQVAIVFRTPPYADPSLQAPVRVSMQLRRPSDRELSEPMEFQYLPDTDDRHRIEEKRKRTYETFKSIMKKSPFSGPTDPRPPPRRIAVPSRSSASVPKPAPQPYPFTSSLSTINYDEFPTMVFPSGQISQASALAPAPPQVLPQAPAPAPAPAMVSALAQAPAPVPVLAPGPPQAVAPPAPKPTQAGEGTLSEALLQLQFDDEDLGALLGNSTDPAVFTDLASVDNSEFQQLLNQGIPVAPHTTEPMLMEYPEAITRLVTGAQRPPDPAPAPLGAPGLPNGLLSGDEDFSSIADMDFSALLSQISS
Flag-tagged p65/RelA truncation D1 (RHD domain): residues 19-306 of Q04206

Experiments:
[1] = target: Flag-tagged p65/RelA full length (UniProt Q04206); assay: co-IP; extracts of HEK293T cells co-transfected with two tagged constructs, harvested 24 h after transfection; immunoprecipitation (anti-Flag in Fig. 5D and 5F) and immunoblot for the other tag; beads washed six times with low-salt lysis buffer (50 mM Hepes pH 7.5, 150 mM NaCl, 1 mM EDTA, 1.5 mM MgCl2, 10% glycerol, 1% Triton X-100)
[2] = target: Flag-tagged p65/RelA truncation D1 (RHD domain) (UniProt Q04206); assay: as above
[3] = target: p65/RelA (endogenous, THP-1 cells) (human (endogenous in THP-1)) (UniProt Q04206); assay: co-IP; endogenous proteins; THP-1 cells treated with or without LPS; cell extracts precipitated with anti-p65/RelA, immunoblot with anti-LRRC25 or anti-p62; IgG control
[4] = target: p65/RelA (endogenous, PBMCs) (not stated (endogenous in PBMCs)) (UniProt Q04206); assay: co-IP; endogenous proteins; PBMCs treated with 200 ng/ml LPS for 0, 60 and 120 min; cell extracts precipitated with anti-p65/RelA, immunoblot with anti-LRRC25; IgG isotype control

binding [1]: binds
binding [2]: binds
B1: Myc-tagged LRRC25 (protein, UniProt Q8N386 21-305)
chain: LEPSCTVSSADVDWNAEFSATCLNFSGLSLSLPHNQSLRASNVILLDLSGNGLRELPVTFFAHLQKLEVLNVLRNPLSRVDGALAARCDLDLQADCNCALESWHDIRRDNCSGQKPLLCWDTTSSQHNLSAFLEVSCAPGLASATIGAVVVSGCLLLGLAIAGPVLAWRLWRCRVARSRELNKPWAAQDGPKPGLGLQPRYGSRSAPKPQVAVPSCPSTPDYENMFVGQPAAEHQWDEQGAHPSEDNDFYINYKDIDLASQPVYCNLQSLGQAPMDEEEYVIPGH

binding [3]: binds
B2: LRRC25 (endogenous, THP-1 cells) (protein, UniProt Q8N386 21-305)
chain: LEPSCTVSSADVDWNAEFSATCLNFSGLSLSLPHNQSLRASNVILLDLSGNGLRELPVTFFAHLQKLEVLNVLRNPLSRVDGALAARCDLDLQADCNCALESWHDIRRDNCSGQKPLLCWDTTSSQHNLSAFLEVSCAPGLASATIGAVVVSGCLLLGLAIAGPVLAWRLWRCRVARSRELNKPWAAQDGPKPGLGLQPRYGSRSAPKPQVAVPSCPSTPDYENMFVGQPAAEHQWDEQGAHPSEDNDFYINYKDIDLASQPVYCNLQSLGQAPMDEEEYVIPGH

binding [4]: binds
B3: LRRC25 (endogenous, PBMCs) (protein, UniProt Q8N386 21-305)
chain: LEPSCTVSSADVDWNAEFSATCLNFSGLSLSLPHNQSLRASNVILLDLSGNGLRELPVTFFAHLQKLEVLNVLRNPLSRVDGALAARCDLDLQADCNCALESWHDIRRDNCSGQKPLLCWDTTSSQHNLSAFLEVSCAPGLASATIGAVVVSGCLLLGLAIAGPVLAWRLWRCRVARSRELNKPWAAQDGPKPGLGLQPRYGSRSAPKPQVAVPSCPSTPDYENMFVGQPAAEHQWDEQGAHPSEDNDFYINYKDIDLASQPVYCNLQSLGQAPMDEEEYVIPGH
